Measurements: patent publication US12269902B2 (TRANSFERT PLUS, S.E.C., priority 2015, dated 2025)
The same purity stands for every peptide and may come from a single statement.

Test: general procedure: peptide synthesis; TBTU
Settings: late stage modification step, UPLC-MS

KBP106-Dmg-Doxo
final LC-MS purity: >95%
